Patent publication US20220260588A1
These are yes or no findings as the source states them, for the method shown. Some entries that bind do so weakly or less than the wild type. For part of these data: Sequences can lack the tags named with a protein.

T1: peptides with the consensus motif WDETKGE (human)
T1 sequence (peptide): WDETKGE

T2: recombinant His6-tagged Mcm5 (fragment of human MCM5 expressed in E. coli) (human) (UniProt P33992)
T2 sequence: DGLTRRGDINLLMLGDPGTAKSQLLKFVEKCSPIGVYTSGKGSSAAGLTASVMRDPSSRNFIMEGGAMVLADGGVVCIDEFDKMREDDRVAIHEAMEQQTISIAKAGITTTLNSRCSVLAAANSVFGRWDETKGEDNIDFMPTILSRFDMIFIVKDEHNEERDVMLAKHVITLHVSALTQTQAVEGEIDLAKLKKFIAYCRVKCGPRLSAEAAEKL

T3: peptides with the consensus motif DDRVAIH (human)
T3 sequence (peptide): DDRVAIH


Tests used:
[1] = target: T1, peptides with the consensus motif WDETKGE (human); assay: peptide microarray, antibody at 1 and 10 ug/ml
[2] = target: T2, recombinant His6-tagged Mcm5 (fragment of human MCM5 expressed in E. coli) (human); assay: colorimetric screening ELISA on His-tagged Mcm5 on Ni-NTA plate
[3] = target: T2, recombinant His6-tagged Mcm5 (fragment of human MCM5 expressed in E. coli) (human); assay: ELISA, dilution of purified MAb on antigen-limiting 25 ng/well Mcm5 on Ni-NTA plate
[4] = target: T2, recombinant His6-tagged Mcm5 (fragment of human MCM5 expressed in E. coli) (human); assay: colorimetric screening ELISA, hybridoma supernatant on His-tagged Mcm5 on Ni-NTA plate, goat anti-mouse IgG-HRP
[5] = target: T3, peptides with the consensus motif DDRVAIH (human); assay: peptide microarray, antibody at 1 and 10 ug/ml

| binding [1] | binding [2] | binding [3] | binding [4] | binding [5] | Binder |
| --- | --- | --- | --- | --- | --- |
| binds | binds | binds | binds | – | mouse monoclonal IgG antibody 12A7 (antibody, V domains shown) VH: QQDLQQSGPGILQPTQTLSLTCSFSGFSLSTSGMGVSWIRQSSNMGLEWLAHIFWDDDKRYNPSLRSRLTLSKDTSSSQVFLMITSVSTADSATYYCARRSDYNYYSMDYWGQGTAVTVSS VL: DIMLTQSPLSLSVTLGDQASISCRSSQNLVQSNGNTYLTWYLQKPGQSPKVLINKVSNRFYGVPDRFSGSGSGTDFTLRISRVEAEDLGIYFCSQSTRVPYTFGGGTKLEIRR |
| binds | – | – | – | binds | mouse monoclonal IgG antibody 4B4 (antibody, V domains shown) VH: VKLQESGGGLVKPGGSLKLSCAASGFTFSNYAMSWVRQNPEKRLEWVATISRGGSYTYYPDSVKGRFTISRDNAKNTLYLQMNSLRSEDTAMYFCARHGYNYDDGAWFANWGQGTLVTVSA VL: DIMLTQSPSSLSASLGERVSLTCRASQDIGSSLNWLQQEPDGTIKRLIYATSSLDSGVPKRFSGSRSGSDYSLTISSLESEDFVDYYCLQYASSPPTFGGGTKLEIK |
